About 7,700 (2.3%) of roughly 330,000 compounds were called active. Inconclusive means that the source gave no clear call. Such entries were picked first, then a sample of the others. Calls follow the shape of the dose curve; as a rule, active = well fitted inhibition curve with a large enough effect; inconclusive = small, poorly fitted or top-dose-only effect, or effect the other way; inactive = flat fitted curve, though single readings scatter. Potencies beside an inconclusive call are fits to weak or partial responses and may not hold up.
Assay: qHTS screen for small molecules that inhibit ELG1-dependent DNA repair in human embryonic kidney (HEK293T) cells expressing luciferase-tagged ELG1; also: nearly all actives have a fitted effect of over 55% in size
Conditions: HEK293T ELG1-luciferase reporter, luminescence, 16 h, DNA damage induced by 5-fluorouridine; activity change, negative = inhibition: at 46.1 µM (top of the series)
Outline: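 Cells (2,000 per well) received 5-fluorouridine plus test compound or DMSO and were incubated 16 hr at 37 °C, 5% CO2. Luciferase activity was read by luminescence 30 min after ONE-Glo addition; signal suppression marked inhibition of damage-induced ELG1 function.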
% is scaled to controls: 0 for no effect and ±100 for the full control effect; potency is read from the fitted curve at half-maximal effect.

Row | Compound | Potency | activity change, negative = inhibition
1 | O=C(NCc1ccco1)c1cccc2c1C(=O)c1ccc(N3CCC(Cc4ccccc4)CC3)cc1S2(=O)=O | inconclusive: 6.51 µM [inhibitor, partial curve] | 
2 | CCC(=O)N/C(N)=N/c1nc2ccccc2o1 | inconclusive: 7.3 µM [activator, partial curve] | 
3 | CC(=O)c1ccc(NC(=O)c2cccs2)cc1 | inconclusive: 8.2 µM [activator, partial curve] | 
4 | O=C(COc1cc(Cl)ccc1Cl)Nc1nnc(C2CC2)s1 | inconclusive: 29.1 µM [activator, single point] | 
5 | COc1ccc(C(=O)O)cc1NC(=S)NC(=O)/C=C/c1ccc(C(C)C)cc1 | inactive | 
6 | COc1cccc2c3c(c(C)nc12)CC(C)O3 (centres undefined) | inconclusive: 18.4 µM [activator, partial curve, poor fit] | 
7 | N#CCC(=O)N/N=C/c1ccc(OC2CSC2)cc1 | inactive | 
8 | Cc1nc2sc3c(=O)[nH]nnc3c2c(C)c1Br | inactive | 
9 | CCOC(=O)C1=C(C)Nc2ccccc2N=C1NC(=O)c1cccc(S(=O)(=O)NCc2ccccc2)c1 | inconclusive: 20.6 µM [inhibitor, single point] | 
10 | O=[N+]([O-])CC(=Nc1ccc(F)cc1)N/N=C\c1oc(O)c2ccccc12 | inactive | 
11 | Cc1[nH]c2ccccc2c1N=Nc1ccc(F)cc1 | inactive | 
12 | COc1ccc(NC(=O)c2ccc(Cl)nc2)cc1S(=O)(=O)N1CCOCC1 | inconclusive: 14.6 µM [inhibitor, single point] | 
13 | O=C(NCc1ccccn1)c1ccc2c(c1)N(Cc1ccccc1)CCS2 | inconclusive: 25.9 µM [inhibitor, partial curve, poor fit] | 
14 | O=C1C(NS(=O)(=O)c2cccs2)=C(N2CCN(c3cccc(C(F)(F)F)c3)CC2)C(=O)c2ccccc21 | inconclusive: 16.4 µM [inhibitor, partial curve] | 
15 | COc1cc2c(c(OC)c1)C(c1ccncc1)CC(=O)N2 (centres undefined) | inconclusive: 0.0046 µM [inhibitor, full curve, poor fit] | 
16 | CN(C)C(=O)CCC(=O)N1CCCC(C(=O)c2ccc(C(F)(F)F)cc2)C1 (centres undefined) | inactive | 
17 | C=CCc1c(C)[nH]c2c(OC)cccc2c1=S | inactive | 
18 | Cc1[nH]c2ccccc2c1SCC(=O)NNC(=O)Nc1ccc(OC(F)(F)F)cc1 | inconclusive: 16.4 µM [inhibitor, single point] | 
19 | COc1cccc(CNC(=O)c2cccc(Br)c2)c1 | inactive | 
20 | Cn1cccc1/C=C1\Cc2ccccc2C1=O | inconclusive: 11.6 µM [activator, partial curve] | 
21 | O=C(Nc1cccc2cccnc12)c1ccc(Br)cc1Br | inconclusive: 18.3 µM [activator, partial curve, poor fit] | 
22 | CCCCn1c(N)c(N(C)C(=O)c2cc3c(F)cccc3s2)c(=O)[nH]c1=O | inconclusive: 25.9 µM [activator, single point] | 
23 | Cc1cc(N2CCN(c3ccccc3)CC2)nc(-n2nc(C)cc2C)n1 | inconclusive: 7.31 µM [inhibitor, single point] | 

Shown in markdown: part of the list above

| Row | Compound | Potency | activity change, negative = inhibition |
| --- | --- | --- | --- |
| 19 | COc1cccc(CNC(=O)c2cccc(Br)c2)c1 | inactive |  |
| 20 | Cn1cccc1/C=C1\Cc2ccccc2C1=O | inconclusive: 11.6 µM [activator, partial curve] |  |
| 21 | O=C(Nc1cccc2cccnc12)c1ccc(Br)cc1Br | inconclusive: 18.3 µM [activator, partial curve, poor fit] |  |
| 22 | CCCCn1c(N)c(N(C)C(=O)c2cc3c(F)cccc3s2)c(=O)[nH]c1=O | inconclusive: 25.9 µM [activator, single point] |  |

(further entries)

Row | Compound | Potency | activity change, negative = inhibition
24 | Cc1nc(N2CCN(c3ccccn3)CC2)c2c(C)c(C(=O)Nc3ccc(Cl)cc3)sc2n1 | active: 8.2 µM | 
25 | CSCC[C@H](NC(=O)Nc1ccc(Oc2ccccc2)cc1)C(=O)O | inactive | 
26 | CC(C)n1nnc(-c2ccc(OCc3ccccc3F)cc2)n1 | inconclusive: 35.5 µM [activator, single point] | 
27 | O=S(=O)(c1cccc(F)c1)N1CCN(C(=S)NCC2CCCO2)CC1 (centres undefined) | inactive | 
28 | O=C(COc1ccc(Br)cc1)NNC(=S)NCc1ccccc1 | inactive | 
29 | COc1ccc(NC(=S)N/C(=N/S(=O)(=O)c2ccc(C)cc2)c2ccccc2)cc1 | inconclusive: 23.1 µM [activator, single point] | 
30 | O=C(Cn1[nH]c(=O)c2ccccc2c1=O)NCCN1C(=O)S/C(=C\c2ccccc2)C1=O | inconclusive: 29.1 µM [inhibitor, partial curve, poor fit] | 
31 | Cn1c(O)c(N=NC(=O)CNC(=O)c2ccco2)c2ccccc21 | inconclusive: 18.4 µM [activator, partial curve] | 
32 | CC1C/C(=C/c2ccccn2)C(=O)/C(=C/c2ccccn2)C1 (centres undefined) | active: 4.61 µM | 
33 | Cc1cc(OCCCC(=O)NC2=NCCS2)ccc1Cl | inactive | 
34 | O=C(COc1ccccc1Cl)Nc1cccc(S(=O)(=O)N2CCCC2)c1 | inconclusive: 32.6 µM [inhibitor, partial curve, poor fit] | 
35 | CCn1nc(C)cc1C(=O)N1CCCC(C(=O)c2ccc(Oc3ccccc3)cc2)C1 (centres undefined) | inconclusive: 20.6 µM [inhibitor, single point] | 
36 | COc1ccc(-c2[nH]ncc2CN2CCN(c3ccc(F)cc3)CC2)cc1 | inconclusive: 29.1 µM [inhibitor, single point] | 
37 | CCOC(=O)C1Cn2c(nc3c(c2=O)C(C)(CC)Cc2ccccc2-3)S1 (centres undefined) | inconclusive: 29.1 µM [inhibitor, single point] | 
38 | COCCNC(=O)c1ccc(S(=O)(=O)N2CCCc3ccccc32)cc1 |  | inconclusive: 31.8% [activator]
39 | COc1ccc(-n2nc(C(=O)NCC(=O)NCCCN3CCOCC3)c3ccccc3c2=O)cc1 | inactive | 
40 | O=C1C2C(c3ccccc3)(C(=O)N1c1ccc(Cl)cc1)C2(c1ccccc1)c1ccccc1 (centres undefined) | active: 6.51 µM | 
41 | CCOC(=O)N1CCN(c2nnc(-c3ccc(C)cc3)c3ccccc23)CC1 | inconclusive: 20.6 µM [inhibitor, single point] | 
42 | Cc1ccc(-n2nc(C)c3c(=O)[nH]c(C(F)(F)F)nc32)cc1 | inconclusive: 16.4 µM [inhibitor, partial curve, poor fit] | 
43 | O=C(Nc1nccs1)c1ccc(-c2ccc(F)cc2)o1 | inconclusive: 16.4 µM [activator, partial curve] | 
44 | Cc1cc(=O)n2nc(N3CCCC(C(=O)NC4CCC(C)CC4)C3)sc2n1 (centres undefined) | inconclusive: 13 µM [activator, single point] | 
45 | CCn1nnc(NC(=O)c2cc3ccccc3o2)n1 | inconclusive: 7.31 µM [activator, single point] | 
46 | O=C(c1cccc(-c2nnc(-c3ccccc3)o2)c1)N1CCCCC1 | inconclusive: 10.3 µM [activator, partial curve] | 

Row | Compound | Potency | activity change, negative = inhibition
47 | COC(=O)C1=C(C)NC(C)=C(C(=O)OC)C1c1ccc(-c2cccc([N+](=O)[O-])c2)o1 | inconclusive: 20.6 µM [inhibitor, single point] | 
48 | CC1Oc2ccccc2C(=O)N(CC(=O)c2ccc3c(c2)OCCO3)C1=O (centres undefined) | inactive | 
49 | Cc1nn(-c2nc3ccccc3[nH]2)c(=O)c2ccccc12 | inconclusive: 0.058 µM [activator, partial curve, poor fit] | 
50 | CCN1C(=O)[C@H]2[C@@H](c3ccc(-c4ccc(F)cc4)cc3)N[C@@](Cc3ccccc3)(C(=O)OC)[C@H]2C1=O | inconclusive: 35.5 µM [inhibitor, single point] | 
51 | Cc1ccccc1OCC(O)Cn1c(=N)n(Cc2ccccc2)c2ccccc21 (centres undefined) | inconclusive: 20.6 µM [inhibitor, partial curve, poor fit] | 
52 | COc1ccc2c(CC(=O)NNC(=O)c3ccccc3F)coc2c1 | inactive | 
53 | C[C@]12C(=O)N(c3cccc(F)c3)C(=O)N1[C@@H]1c3ccccc3OC[C@@H]1[C@H]2c1ccccc1 | inactive | 
54 | CC(=O)Nc1cccc(NC(=O)CSc2ncc(-c3ccc(Cl)cc3)n2Cc2ccco2)c1 | inconclusive: 14.6 µM [inhibitor, partial curve, poor fit] | 
55 | Cc1cc(C)c2nc(NC(=O)c3ccc4c(=O)n5c(nc4c3)CCCCC5)sc2c1 | active: 10.3 µM | 
56 | Cc1cc(NS(=O)(=O)c2ccc(NC(=O)C(C)N3C(=O)c4ccccc4C3=O)cc2)nc(C)n1 (centres undefined) | inactive | 
57 | Fc1ccc(CN2CCCN(C(=S)Nc3ccc(F)cc3)CC2)cc1 | inconclusive: 29.1 µM [inhibitor, single point] | 
58 | O=C1c2ccccc2C(=O)N1CC(O)CNc1ccc(Br)cc1 (centres undefined) | inactive | 
59 | CCNc1oc(COc2cccc(C)c2)nc1C#N | inconclusive: 16.4 µM [activator, partial curve] | 
60 | Cc1ccc2c(C)c(C(=O)N(Cc3ccc(F)cc3)C3CCS(=O)(=O)C3)oc2c1 (centres undefined) | inconclusive: 29.1 µM [inhibitor, single point] | 
61 | COCC(C)n1c(-c2ccc3c(c2)NC(=O)CO3)csc1=Nc1ccc(OC(F)F)cc1 (centres undefined) | inconclusive: 4.11 µM [inhibitor, full curve] | 
62 | Cc1cc(OC(C)C(=O)NCCN2CCOCC2)c2c(C)c(C)c(=O)oc2c1 (centres undefined) | inconclusive: 18.3 µM [activator, single point] | 
63 | O=C(O)CC(NNC(=O)c1ccccc1)C(=O)Nc1ccc([N+](=O)[O-])cc1 (centres undefined) | inconclusive: 29.1 µM [activator, single point] | 
64 | O=C1c2ccccc2NC2(CCCCC2)N1c1ccc(O)cc1 | inconclusive: 14.6 µM [activator, partial curve, poor fit] | 
65 | COC(=O)c1cc(S(=O)(=O)Nc2cc(OC)cc(OC)c2)c[nH]1 | inactive | 
66 | O=C(CCc1ccc(O)cc1)N/N=C/c1coc2ccccc2c1=O | inconclusive: 20.6 µM [inhibitor, single point] | 
67 | CCOC(=O)C(Cc1c[nH]c2ccccc12)NC(=O)c1ccco1 (centres undefined) | inactive | 
68 | O=C(COC(=O)/C=C/c1ccc(S(=O)(=O)N2CCOCC2)cc1)NCc1ccc2c(c1)OCO2 | inactive | 
69 | Oc1ccc2ccc3[nH]cnc3c2c1 |  | inconclusive: 4.5% [activator]
